Laboratory results reported in publication PMC4442108 (Molecules, 2015).
HELM strings list residues between dots; [ac] is acetyl, [am] amide, other brackets name non-standard units.

Assay: peptide made by a vendor
Settings: whole synthesis

PEPTIDE1{G.G.G.Y.S.K.A.Q.K.A.Q.A.K.Q.A.K.Q.A.Q.K.A.Q.K.A.Q.A.K.Q.A.K.Q.A.Q.K.A.Q.K.A.Q.A.K.Q.A.K.Q}$$$$V2.0
purity (crude or final not stated): ~80%
